Measurements reported in PubChem BioAssay AID652243 (Drosophila RNAi Screening Center, 2013).
The deposit covers about 24,000 reagents; shown is a random part of those with a known target gene and a result. In the full data, 246 (1%) are marked active. 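Plates not normalised; calls are printed but the firefly/Renilla ratio behind them is not deposited; fold cut for lowering reported inconsistently.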 The raw values are shown without normalisation. Not given: the amount of reagent.

- Assay: 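Knock-downs that decrease or increase androgen receptor reporter signal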 (primary screen)
- Cell system: Drosophila S2R+ cells
- Reagent: long dsRNA against Drosophila genes
- Timing: 72 h (48 h, then 24 h hormone)
- Challenge: synthetic androgen R1881 at 10 nM for 24 h
- Measured: 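Firefly light from an androgen-responsive reporter and Renilla control light per well, raw and unnormalised, for each of two replicates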
- Direction: firefly reporter light: higher = more light from androgen-responsive reporter; Renilla control light: higher = more constitutive control signal (cell number, transfection)
- Active means: 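Hit when the log firefly-to-Renilla ratio dropped or increased by a fixed fold versus the mean of GFP or LacZ controls across duplicate plates; lowering cut given as 1.5 and as 3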
- Meaning of the calls: active = hit: reporter lowered or raised; inactive = no hit

gene | dsRNA | firefly reporter light, replicate 1 | firefly reporter light, replicate 2 | Renilla control light, replicate 1 | Renilla control light, replicate 2 | call
CG12825 (GeneID 35726) | DRSC06174 | 6.93e5 | 8.64e5 | 2.23e6 | 2.31e6 | inactive
CG12825 (GeneID 35726) | DRSC26984 | 5.00e5 | 3.11e5 | 9.52e5 | 6.07e5 | inactive
Mtpalpha (GeneID 34276) | DRSC01994 | 7.23e5 | 7.10e5 | 1.27e6 | 1.95e6 | inactive
CG14507 (GeneID 43461) | DRSC14859 | 1.39e5 | 1.31e5 | 2.25e6 | 2.28e6 | inactive
CG14507 (GeneID 43461) | DRSC27958 | 8.80e5 | 3.80e5 | 3.74e6 | 1.63e6 | inactive
lncRNA:CR42862 (GeneID 10178964) | DRSC08348 | 1.02e6 | 1.02e6 | 1.72e6 | 1.69e6 | inactive
lncRNA:CR42862 (GeneID 10178964) | DRSC27596 | 1.92e5 | 1.84e5 | 6.55e5 | 5.47e5 | inactive
lncRNA:CR42862 (GeneID 10178964) | DRSC36563 | 7.63e5 | 9.30e5 | 1.86e6 | 1.80e6 | inactive
sinu (GeneID 46187) | DRSC09752 | 6.33e5 | 5.95e5 | 2.47e6 | 3.32e6 | inactive
CG14253 (GeneID 43243) | DRSC14748 | 1.60e5 | 1.24e5 | 1.71e6 | 1.67e6 | inactive
Nab2 (GeneID 42897) | DRSC14158 | 88555 | 85407 | 5.24e5 | 6.74e5 | inactive
Nab2 (GeneID 42897) | DRSC27135 | 3.11e5 | 1.99e5 | 6.76e5 | 3.19e5 | inactive
CG33332 (GeneID 2768669) | DRSC15504 | 97051 | 1.36e5 | 1.97e6 | 1.18e6 | inactive
CG33332 (GeneID 2768669) | DRSC27661 | 3.50e5 | 3.30e5 | 3.64e5 | 6.53e5 | inactive
Ced-12 (GeneID 34633) | DRSC02840 | 1.68e5 | 1.85e5 | 1.04e6 | 1.33e6 | inactive
Ced-12 (GeneID 34633) | DRSC24035 | 9.32e5 | 1.11e6 | 8.97e5 | 1.02e6 | inactive
IFT54 (GeneID 41739) | DRSC15469 | 1.73e5 | 2.41e5 | 2.59e6 | 3.17e6 | inactive
alpha-Est5 (GeneID 40905) | DRSC12617 | 66884 | 51559 | 2.31e5 | 3.51e5 | inactive
Wdr59 (GeneID 34540) | DRSC02771 | 1.51e6 | 1.24e6 | 4.11e6 | 3.33e6 | inactive
CG32032 (GeneID 192535) | DRSC08961 | 1.27e5 | 1.77e5 | 3.32e5 | 3.06e5 | inactive
st (GeneID 39836) | DRSC11399 | 14668 | 33015 | 3.02e5 | 2.84e5 | inactive
st (GeneID 39836) | DRSC28257 | 2.80e5 | 4.92e5 | 8.33e5 | 1.68e6 | inactive
a5 (GeneID 33317) | DRSC00798 | 1.30e5 | 85817 | 7.98e5 | 8.10e5 | inactive
GILT2 (GeneID 42788) | DRSC14196 | 54214 | 95544 | 7.69e5 | 7.26e5 | inactive
mRpL15 (GeneID 40261) | DRSC11771 | 88177 | 23519 | 4.15e5 | 2.27e5 | inactive
mRpL15 (GeneID 40261) | DRSC24402 | 3.62e5 | 3.38e5 | 5.05e5 | 5.39e5 | inactive
CG14877 (GeneID 41929) | DRSC15001 | 1.56e5 | 1.32e5 | 2.32e6 | 2.04e6 | inactive
CG14877 (GeneID 41929) | DRSC30033 | 2.19e5 | 2.55e5 | 1.20e6 | 1.35e6 | inactive
AlaRS (GeneID 34156) | DRSC01851 | 1.04e6 | 7.42e5 | 2.35e6 | 2.08e6 | inactive
Nthl1 (GeneID 35365) | DRSC03183 | 1.18e5 | 1.24e5 | 1.18e6 | 1.29e6 | inactive
Ranbp16 (GeneID 118436) | DRSC20160 | 4.61e5 | 4.23e5 | 3.54e6 | 1.83e6 | inactive
CG34170 (GeneID 5740214) | DRSC38736 | 6.19e5 | 6.22e5 | 1.99e6 | 2.18e6 | inactive
Ebp (GeneID 38009) | DRSC04048 | 1.02e6 | 9.44e5 | 1.79e6 | 1.49e6 | inactive
Ebp (GeneID 38009) | DRSC27342 | 6.43e5 | 6.30e5 | 1.01e6 | 9.41e5 | inactive
Set8 (GeneID 41743) | DRSC15473 | 1.11e5 | 75212 | 8.40e5 | 4.90e5 | inactive
Set8 (GeneID 41743) | DRSC27118 | 2.60e5 | 2.42e5 | 5.25e5 | 4.00e5 | inactive
CG11509 (retired record) (GeneID 31115) | DRSC17788 | 1.10e5 | 1.07e5 | 1.17e6 | 7.35e5 | inactive

Already shown: an excerpt of the list.
gene | dsRNA | firefly reporter light, replicate 1 | firefly reporter light, replicate 2 | Renilla control light, replicate 1 | Renilla control light, replicate 2 | call
mRpL15 (GeneID 40261) | DRSC11771 | 88177 | 23519 | 4.15e5 | 2.27e5 | inactive
mRpL15 (GeneID 40261) | DRSC24402 | 3.62e5 | 3.38e5 | 5.05e5 | 5.39e5 | inactive
CG14877 (GeneID 41929) | DRSC15001 | 1.56e5 | 1.32e5 | 2.32e6 | 2.04e6 | inactive

The list goes on:
gene | dsRNA | firefly reporter light, replicate 1 | firefly reporter light, replicate 2 | Renilla control light, replicate 1 | Renilla control light, replicate 2 | call
CG34031 (GeneID 3885665) | DRSC37860 | 5.64e5 | 4.65e5 | 7.21e5 | 1.20e6 | inactive
Hrs (GeneID 33458) | DRSC00549 | 7.62e5 | 5.34e5 | 4.27e6 | 2.46e6 | active
Hrs (GeneID 33458) | DRSC27741 | 2.45e5 | 2.02e5 | 3.02e5 | 4.94e5 | inactive
CG13634 (GeneID 42951) | DRSC14635 | 1.67e5 | 1.75e5 | 1.82e6 | 2.32e6 | inactive
Grl58a (GeneID 37509) | DRSC04145 | 2.31e5 | 2.03e5 | 1.97e6 | 1.35e6 | inactive
CG9853 (GeneID 40557) | DRSC12343 | 16473 | 22226 | 2.24e5 | 2.13e5 | inactive
CG9853 (GeneID 40557) | DRSC22840 | 5.36e5 | 7.36e5 | 8.32e5 | 1.11e6 | inactive
CG9853 (GeneID 40557) | DRSC28399 | 4.81e5 | 7.27e5 | 7.10e5 | 1.14e6 | inactive
CG7860 (GeneID 32488) | DRSC20060 | 45639 | 72133 | 5.48e5 | 5.20e5 | inactive
CG7420 (GeneID 33332) | DRSC00704 | 1.03e6 | 1.11e6 | 2.33e6 | 1.70e6 | inactive
DMAP1 (GeneID 37339) | DRSC06044 | 2.09e6 | 1.66e6 | 1.98e6 | 1.56e6 | inactive
DMAP1 (GeneID 37339) | DRSC26559 | 5.12e5 | 4.93e5 | 4.90e5 | 4.36e5 | inactive
CG14408 (GeneID 32407) | DRSC23396 | 1.20e6 | 9.37e5 | 1.34e6 | 1.52e6 | inactive
Alg9 (GeneID 43031) | DRSC14407 | 96392 | 89497 | 5.68e5 | 6.40e5 | inactive
CDase (GeneID 43618) | DRSC14932 | 56385 | 53795 | 5.83e5 | 4.07e5 | inactive
Tango1 (GeneID 33930) | DRSC02127 | 1.33e6 | 9.15e5 | 1.66e6 | 1.20e6 | inactive
Tango1 (GeneID 33930) | DRSC27972 | 5.78e5 | 4.58e5 | 1.56e6 | 1.06e6 | inactive
mge (GeneID 38459) | DRSC08721 | 1.53e5 | 1.67e5 | 1.66e6 | 2.22e6 | inactive
CG34279 (GeneID 5740605) | DRSC38654 | 8.07e5 | 7.32e5 | 1.62e6 | 1.69e6 | inactive
CG5039 (GeneID 43100) | DRSC15703 | 2.07e5 | 2.19e5 | 2.95e6 | 2.57e6 | inactive
CG5039 (GeneID 43100) | DRSC27367 | 3.49e5 | 2.70e5 | 7.07e5 | 6.96e5 | inactive
